Measured values as given in article PMC7819943, “Rice protein-binding microarrays: a tool to detect cis-acting elements near promoter regions in rice”.
Some of the results follow.

Chains of the proteins cited; added tags and fusions are not shown.
UniProt Q0JBA9, entry or part of it: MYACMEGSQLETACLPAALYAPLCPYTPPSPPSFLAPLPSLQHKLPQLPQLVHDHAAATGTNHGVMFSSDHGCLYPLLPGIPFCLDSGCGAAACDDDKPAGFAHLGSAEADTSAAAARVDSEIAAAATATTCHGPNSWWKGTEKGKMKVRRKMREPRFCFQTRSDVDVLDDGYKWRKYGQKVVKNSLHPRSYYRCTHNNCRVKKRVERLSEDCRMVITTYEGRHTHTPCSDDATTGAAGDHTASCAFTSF

Target: OsWRKY34 (Oryza sativa, UniProt Q0JBA9 1-250)
Test: protein-binding microarray (RPBM); PBS, 2% BSA, 51.3 ng/ul salmon testes DNA, 50 uM zinc acetate, 200 nM TF, 25 C, 1 h; high values mean tight binding
Conditions: protein: recombinant; tags: N-terminal polyhistidine and DsRed monomer fusion (pET32a); label: CyDye5-dUTP incorporated in the synthesized complementary strand; 3' TTTTT single-stranded linker to array surface; dsDNA, one strand shown
How it was run: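 An Axon 4000B scanner gave the binding signal as per-feature fluorescence intensity in arbitrary units. This followed washing of a custom Agilent array that had been incubated for 1 h at 25 °C with 200 nM protein in PBS, 2% BSA, salmon testes DNA and 50 µM zinc acetate. The proteins were transcription factors fused at the N-terminus to polyhistidine and DsRed, expressed in E. coli BL21-CodonPlus and purified on Ni–NTA.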

Sequence	binding signal
TCAGCTACTCTACTCTCCCACTTGCTTCCGCTGCTTCTCCCGGAGTCACCTAGTGCAG	9460 fluorescence intensity (a.u.)
GGCAGCGACACCAACTCTCTAGCCGCACGCTGCACTCGCGCGGAGTCACCTAGTGCAG	10100 fluorescence intensity (a.u.)
GATGTCCGGTTTTGTGGTTTAGGGTCATGGATTAGATTTCCGGAGTCACCTAGTGCAG	8760 fluorescence intensity (a.u.)
GCCCACACCTCCCCATCAACGCTCGCGCTGTTCCCGCCTCCGGAGTCACCTAGTGCAG	10300 fluorescence intensity (a.u.)
CACTACATTGGCCTGCATCTTCAACACAGCAACGTTTCACCGGAGTCACCTAGTGCAG	8190 fluorescence intensity (a.u.)
ACACTCGCTAACTGCTCTCTCTCTCTCTCGTTCATTCCTTCGGAGTCACCTAGTGCAG	14700 fluorescence intensity (a.u.)
TGGGAAGTACATATGTAATGTTGTTTATTTATTTTTGTTTCGGAGTCACCTAGTGCAG	9860 fluorescence intensity (a.u.)
AAGACTATTTTATTTTCTTAGTTTTTTTTACTGTGTTTCTCGGAGTCACCTAGTGCAG	13300 fluorescence intensity (a.u.)
ATTCTCTCTTTTGCTCGCTTTGTTCCCTTTTCTTTCTTTTCGGAGTCACCTAGTGCAG	8700 fluorescence intensity (a.u.)
CTCGTCATATCCCATTGCCAACCTAGCACAAAACGACATTCGGAGTCACCTAGTGCAG	9240 fluorescence intensity (a.u.)
TGCTTCATATCCCTGGTTCCCCATACCCTAGCCAATCCCACGGAGTCACCTAGTGCAG	8200 fluorescence intensity (a.u.)
GCTATATACTATTTCTCCAATTTTTCCCACTGGGTTTTTACGGAGTCACCTAGTGCAG	10500 fluorescence intensity (a.u.)
CTCCCACCACCGCCGCCGCCGAACCCTAGTTCCTCTTTGCCGGAGTCACCTAGTGCAG	9210 fluorescence intensity (a.u.)
GATCACCTCTGTCGAACTCAAACCCTCAGCTGTGACGAGTCGGAGTCACCTAGTGCAG	10000 fluorescence intensity (a.u.)
TACGTTTGGAACTGTGTATTACTTGTCGTTTTGTGTACCCCGGAGTCACCTAGTGCAG	11300 fluorescence intensity (a.u.)
TAGTTTTTTCAGTTGCATTTTTTTAACTTAGCCATTGCATCGGAGTCACCTAGTGCAG	8150 fluorescence intensity (a.u.)
CTCCAAGCGCCCGCGCGCGCCACCAGCTGTCGCTGCCTCTCGGAGTCACCTAGTGCAG	10300 fluorescence intensity (a.u.)
ACGCCACTCGCTCGGATCCAGGGCCCCACCTGTCATTAGCCGGAGTCACCTAGTGCAG	8430 fluorescence intensity (a.u.)
ATCGAGGTCCCCTGCCCGCACACTTCGCGTCAGCTGCTGCCGGAGTCACCTAGTGCAG	9000 fluorescence intensity (a.u.)
TATTCAGGGGCAAACAATCCAGAGTTCCAGTCTCGGCCTTCGGAGTCACCTAGTGCAG	8090 fluorescence intensity (a.u.)
TCTGACCGTTGGATTGCCCTGATCAGGTGGCTGAGATTTCCGGAGTCACCTAGTGCAG	8240 fluorescence intensity (a.u.)

Sequence	binding signal
GGGCCTAAGTTTCTCTCTGCTGGGCTATTCTCTGGTTGTACGGAGTCACCTAGTGCAG	8780 fluorescence intensity (a.u.)
TCACATTCTCTTGTCTCTTGTACTCACCGCATCCTGCTTGCGGAGTCACCTAGTGCAG	11200 fluorescence intensity (a.u.)
ATTTTGCTTTGATTATTTTTACCCTTTACTAATTTTACATCGGAGTCACCTAGTGCAG	8520 fluorescence intensity (a.u.)
TGTGACTAATCAGTTGTTTGTATCTTTAAGGTTTGAGAAGCGGAGTCACCTAGTGCAG	9190 fluorescence intensity (a.u.)
TCGTCGTTGTTTCATTTGTTCTTGCAGGTCGCTGAGCGGCCGGAGTCACCTAGTGCAG	9120 fluorescence intensity (a.u.)
CCGTCTACCATGGTACCACCGCGCGCGTCACGTTGCAACGCGGAGTCACCTAGTGCAG	10100 fluorescence intensity (a.u.)
GTCTCTTCTCTCAACCGCGACCGCATCTCGCCGCCCGCCGCGGAGTCACCTAGTGCAG	15400 fluorescence intensity (a.u.)
CTCCCAATGCGCCCAAACCACCGTACCAATCCCTCCTCCGCGGAGTCACCTAGTGCAG	9150 fluorescence intensity (a.u.)
TTTTTTTTTTCTTTCTTTTTTGCGTTTGCATGTGATGGAACGGAGTCACCTAGTGCAG	9530 fluorescence intensity (a.u.)
ACGGCCTCTACATCTAACCGGATATATGCAACCTTTATAACGGAGTCACCTAGTGCAG	9760 fluorescence intensity (a.u.)
CTACACCCCTGCTACTGCTGTTATTGTGGGCTACTTGTTACGGAGTCACCTAGTGCAG	10800 fluorescence intensity (a.u.)
CGCACTTTTCCGCCATTTGTCCGACTCCACCCGCGGCTTACGGAGTCACCTAGTGCAG	14200 fluorescence intensity (a.u.)
GCTCTGGTTTCCTCCGTCGCATCGCAAATTCGCAATATCGCGGAGTCACCTAGTGCAG	9040 fluorescence intensity (a.u.)
TTCTATGCGTAACTTTTTTTAAAACTTTCACTGCAGTTACCGGAGTCACCTAGTGCAG	11200 fluorescence intensity (a.u.)
TGTTTATAGTTGGCTTATAGCCGCTATTGTACCTGTTCTTCGGAGTCACCTAGTGCAG	8310 fluorescence intensity (a.u.)
CCATATACTCTCTCCATCCTTAAATGTTTAACGTTGTTGACGGAGTCACCTAGTGCAG	8670 fluorescence intensity (a.u.)
GAGTCACGCGTAGCAACCGGTCGTATTTGCTATCTCACATCGGAGTCACCTAGTGCAG	11700 fluorescence intensity (a.u.)
ATAGCTTATCATCAGTATACTTTGCCACTTTGAGTAGTTTCGGAGTCACCTAGTGCAG	8500 fluorescence intensity (a.u.)
CTGCAATTCCTTTCCTAGTAATTAATCATCAAACATATATCGGAGTCACCTAGTGCAG	8270 fluorescence intensity (a.u.)
ATCCATCCACCCATCTCATCTTTTGTCTCTTTCTGCTGCTCGGAGTCACCTAGTGCAG	12200 fluorescence intensity (a.u.)
GCCCTGAGTGAACTTTTGCCATCGTTCCTCGGATATCTTACGGAGTCACCTAGTGCAG	9740 fluorescence intensity (a.u.)

Some of the entries so far, in CSV form:
Sequence,binding signal
GCTCTGGTTTCCTCCGTCGCATCGCAAATTCGCAATATCGCGGAGTCACCTAGTGCAG,9040 fluorescence intensity (a.u.)
CTGCAATTCCTTTCCTAGTAATTAATCATCAAACATATATCGGAGTCACCTAGTGCAG,8270 fluorescence intensity (a.u.)
GCCCTGAGTGAACTTTTGCCATCGTTCCTCGGATATCTTACGGAGTCACCTAGTGCAG,9740 fluorescence intensity (a.u.)
